Measurements reported in article PMC7974880.
These are yes or no findings as the source states them, for the method shown. Binding seen in cells or lysates may run through a third protein. Some binding calls cover weakened binding; strength is not graded here.

Protein sequences, listed by entry. Tags and fused reporters are not part of them.
UniProt P51784: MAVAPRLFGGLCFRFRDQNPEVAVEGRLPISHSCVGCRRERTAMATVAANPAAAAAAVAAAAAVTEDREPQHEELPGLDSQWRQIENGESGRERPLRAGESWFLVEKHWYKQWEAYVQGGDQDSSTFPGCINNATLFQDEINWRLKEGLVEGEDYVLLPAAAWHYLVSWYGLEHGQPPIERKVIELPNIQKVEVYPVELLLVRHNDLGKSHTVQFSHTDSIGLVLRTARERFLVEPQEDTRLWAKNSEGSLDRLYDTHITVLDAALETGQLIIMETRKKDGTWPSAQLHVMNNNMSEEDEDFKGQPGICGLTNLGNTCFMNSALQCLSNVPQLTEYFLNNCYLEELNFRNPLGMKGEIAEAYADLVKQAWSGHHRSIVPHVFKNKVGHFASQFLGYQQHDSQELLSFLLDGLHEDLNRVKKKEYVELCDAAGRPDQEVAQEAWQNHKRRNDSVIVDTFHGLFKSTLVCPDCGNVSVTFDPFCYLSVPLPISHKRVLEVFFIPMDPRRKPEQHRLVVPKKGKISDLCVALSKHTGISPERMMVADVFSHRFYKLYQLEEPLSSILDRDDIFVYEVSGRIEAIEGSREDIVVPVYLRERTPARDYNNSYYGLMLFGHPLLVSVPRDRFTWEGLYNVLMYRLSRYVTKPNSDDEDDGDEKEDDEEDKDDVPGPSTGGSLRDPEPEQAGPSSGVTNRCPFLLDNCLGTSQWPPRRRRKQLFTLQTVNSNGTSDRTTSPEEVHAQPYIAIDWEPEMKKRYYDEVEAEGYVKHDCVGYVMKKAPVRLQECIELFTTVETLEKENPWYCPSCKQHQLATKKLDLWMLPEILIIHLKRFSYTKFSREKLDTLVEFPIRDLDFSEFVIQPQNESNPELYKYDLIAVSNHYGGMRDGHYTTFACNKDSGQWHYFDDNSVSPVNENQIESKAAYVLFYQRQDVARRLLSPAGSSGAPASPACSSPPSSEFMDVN

Key:
[1] = target: ubiquitin-specific protease 11 (USP11), endogenous (human (endogenous in HCT116)) (UniProt P51784); experiment: co-IP; endogenous co-IP from HCT116 lysate with anti-USP11 or anti-VCP antibody (IgG as control), 4 °C overnight, protein A/G magnetic beads, immunoblot with anti-VCP or anti-USP11
[2] = target: Flag-USP11 (ubiquitin-specific protease 11) (UniProt P51784); experiment: co-IP; exogenous reciprocal co-IP: Flag-USP11 and Myc-VCP co-transfected into HEK293T; lysate (300 ug, IP lysis buffer with protease inhibitors) with 1-2 ug anti-Flag or anti-Myc antibody at 4 °C overnight, protein A/G magnetic beads 1 h at 4 °C, immunoblot
[3] = target: Myc-VCP (valosin-containing protein) (UniProt P55072); experiment: as above

## valosin-containing protein (VCP), endogenous (from UniProt P55072 1-806) (enzyme)
[1]
  binding: binds

## Myc-VCP (valosin-containing protein) (from UniProt P55072 1-806) (enzyme)
[2]
  binding: binds

## Flag-USP11 (ubiquitin-specific protease 11) (from UniProt P51784 1-963) (enzyme)
[3]
  binding: binds
